## Results of single-concentration screens

Chains of the proteins cited; added tags and fusions are not shown. Residues count along the entry.
UniProt Q8IDJ8, 1-583: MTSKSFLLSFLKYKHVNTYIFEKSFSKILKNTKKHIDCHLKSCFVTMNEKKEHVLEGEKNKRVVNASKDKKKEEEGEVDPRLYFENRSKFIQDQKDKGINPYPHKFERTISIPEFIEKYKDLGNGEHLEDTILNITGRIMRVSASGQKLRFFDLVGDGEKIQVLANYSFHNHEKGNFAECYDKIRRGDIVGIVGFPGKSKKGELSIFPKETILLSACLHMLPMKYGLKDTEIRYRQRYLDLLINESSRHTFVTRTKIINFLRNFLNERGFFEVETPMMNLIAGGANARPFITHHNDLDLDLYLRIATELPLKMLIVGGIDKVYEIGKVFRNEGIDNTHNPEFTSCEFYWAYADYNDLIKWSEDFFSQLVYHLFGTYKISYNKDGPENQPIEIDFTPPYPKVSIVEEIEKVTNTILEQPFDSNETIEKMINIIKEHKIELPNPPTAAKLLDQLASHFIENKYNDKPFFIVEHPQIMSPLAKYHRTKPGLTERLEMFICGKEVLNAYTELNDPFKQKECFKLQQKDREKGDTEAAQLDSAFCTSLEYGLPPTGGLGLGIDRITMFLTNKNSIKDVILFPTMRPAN

From ChEMBL document CHEMBL3988442, “University of Dundee, Small-Polar-MMV Screening Library” (2021).

Values are the deposited “Percent Effect”, in %. How 0% and 100% were set is not recorded. Most values in the screen are low, and negative values occur. This is an unselected part of the compounds tested.

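Enzyme assay of the cytosolic lysyl-tRNA synthetase in 384-well plates, read by luminescence. Target: Lysine-tRNA ligase, Plasmodium falciparum 3D7 (UniProt Q8IDJ8). Tested at 30 µM. Direction is inferred from only a few compounds that gave an IC50; most scored high, so higher reads as stronger inhibition. Of about 69,000 compounds tested this way, about 49 (0.071%) reached 50% or more in at least one test.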

* COc1ccc2c3c1CN(C(C)=O)CC3=CC(C)(C)CO2 | 4.356%
* O=C(Cc1ccsc1)N1CCC[C@@H]1Cn1c(=O)oc2ccccc21 | -0.09079%
* Cn1c(CO)cnc1SC1CCCN(c2ccccc2F)C1=O (stereo not shown) | -1.896%
* Cc1cc(C)cc(OCCN(C)C2CCOC2=O)c1 (stereo not shown) | 4.092%
* COCCC(=O)N1CCC2(COCc3cnc(N(C)C)nc32)C1 (stereo not shown) | 0.3807%
* COCC1CN(Cc2ccc(C)o2)Cc2nnn(C)c21 (stereo not shown) | 4.144%
* CN(CC(F)(F)F)C(=O)CNC(=O)N1CCCC(N(C)C)C1 (stereo not shown) | -3.272%
* CCCN1CCN(C(=O)c2ccc(Cn3cc(Br)cn3)cc2)CC1 | 4.074%
* COc1ccccc1CNC(Cc1cccs1)c1nc(C)cs1 (stereo not shown) | 1.728%
* CN(C)c1ccc2c(c1)CN(C(=O)c1ccnnc1)C2c1cnco1 (stereo not shown) | -0.4558%
* O=C(CNc1cc(-n2cnnn2)ccc1F)Nc1ccccc1Cl | 4.087%
* Cc1ccc(OC2CCN(S(=O)(=O)N(C)C)CC2)nc1 | 2.106%
* O=S(=O)(c1c(F)cccc1F)N1CCCC1c1nnc2n1CCCCC2 (stereo not shown) | 4.251%
* CC(=O)N1CCCC2(CN(Cc3ccc(F)cc3)CCO2)C1 (stereo not shown) | 7.506%
* Cc1ccccc1OC(C(=O)N1CCC2(CC1)CN(C)C(=O)O2)C(C)C (stereo not shown) | 7.477%
* CN(Cc1ccccc1)c1ncccc1CNC1CCC1 | -3.528%
* CCS(=O)(=O)N1CC(c2nc(-c3cccs3)no2)C1 | 5.552%
* O=C(c1noc2c1CCCC2)N1CCCC(c2nccs2)C1 (stereo not shown) | 0.6518%
* NC(=O)NCC(=O)N1CCC2(CC1)c1ccccc1CC2O (stereo not shown) | 2.562%
* Clc1ccccc1C1(c2ccnc(C3CC3)n2)CCNCC1 | 1.891%
* Cc1ccc(-c2nc(CC(=O)NCC(C)N3CCOCC3)cs2)o1 (stereo not shown) | 6.911%
* CCN(C)C[C@@H]1CN(C(=O)c2cc(-c3ccc(F)cc3)n[nH]2)C[C@@H]1CO | 2.751%
* CC(C)CN1CC[C@@H]2[C@@H]1CCN2S(=O)(=O)c1cn(C)cn1 | 4.814%
* O=C(NCCO)C1CN(c2cncnc2)CCO1 (stereo not shown) | 1.406%
* COc1ccc(CN2C[C@H](N3CCCC3=O)[C@@H]3OCCC[C@@H]32)cc1 | 5.909%
* CNC(=O)c1noc(CN2CC[C@](C)(O)[C@H](C)C2)n1 | 4.436%
* COc1cccc(OCC2CCCN(C(=O)CCc3cc(O)no3)C2)c1 (stereo not shown) | 5.941%
* c1ccc(CNC[C@H]2COCc3nc4cccnc4n32)cc1 | -0.6448%
* CN(C)c1ncc2c(c1C(=O)O)CCN(Cc1ccco1)C2 | 2.429%
* CCn1c(=O)c2sccc2n(CC(=O)Nc2cccc(Cl)c2)c1=O | -3.035%
* Cc1ccc(CN2CC(C(=O)N3CCCC3)C3(CCOCC3)C2)s1 (stereo not shown) | -0.07119%
* O=C(c1ncn2c1CNS(=O)(=O)c1ccccc1-2)N1CCCCCC1 | 1.93%
* CSc1nc2cc(C)n(CC(=O)N3CCCC3)c2c(=O)n1CC(C)C | 3.751%
* CCN(CC)c1ccc(C(=O)NCC2(C(N)=O)CCOCC2)cn1 | 2.388%
* CS(=O)(=O)N1CCc2c(cccc2NC(=O)NC2CCCC2)C1 | 5.512%
* CCc1cnc(N2CCC(=O)N(CC3CC3)C(C(C)C)C2)nc1 (stereo not shown) | -1.735%
* CCc1ccc(C2CC(=O)Nc3cc(NS(C)(=O)=O)ccc32)o1 (stereo not shown) | -0.7978%
* O=S(=O)(Cc1ccccc1)NCCc1nnc2n1CCC2 | 2.591%
* COc1cccc2c(=O)n(C3CCNCC3)cnc12 | 3.402%
* CC(=O)N[C@@H]1CN(C(=O)CC2CCOCC2)C[C@H]1O | 2.151%
* c1ccc(C2CCCN2Cc2nc(-c3cnccn3)no2)nc1 (stereo not shown) | -3.231%
* CCCn1nc2c(cc1=O)CN(CC(=O)Nc1ccncc1)CC2 | 2.863%
* Cc1cnc(C(=O)Nc2cc(F)ccc2OCC2CCCO2)cn1 (stereo not shown) | -2.841%
* c1ccc(-c2nc(CCNc3nnc(C4CCC4)o3)no2)cc1 | 3.971%
* COCCN(C)C[C@@H]1CCC[C@@H]2CN(Cc3ccc(OC)nc3)C[C@@H]21 | 5.141%
* CCOCCOc1ccccc1C(=O)N1C[C@H](C2CC2)[C@@H](N)C1 | -0.4503%
* COc1ccc(CN2CCOC[C@H](Oc3cccnc3)C2)cc1 | 4.54%
* CCN(CC)CCCNC(=O)C(C)n1cc(Br)cn1 (stereo not shown) | 2.637%
* CC1CCN(CCCNC(=O)C2CCCCC2)CC1 | 9.445%
* O=C(c1scc2c1OCCO2)N1CCOC(Cc2cccc(F)c2)C1 (stereo not shown) | 2.31%
* Cc1nc(CN2CCOC(CNc3cccnn3)C2)oc1C (stereo not shown) | -2.216%
* CCc1ccc(CN(Cc2ccco2)C(C)C(C)C)nc1 (stereo not shown) | -3.627%
* CCn1cc(C(=O)NCCc2nc(-c3ccc(C)cc3)n[nH]2)c(C)n1 | 2.031%
* Cc1ccc(CNC(=O)CN(C)CC2CCN(CCO)CC2)s1 | -3.208%
* CCNC(=O)[C@@H]1C[C@@H](NC(=O)c2ccsc2)CN1CCCSC | 5.06%
* Cc1csc(C(C)(C)NCCOc2ccc(CC#N)cc2)n1 | 2.029%
* CCNC(=O)N(Cc1ccoc1)C1CCCCC1 | 1.12%
* CC(C)C(=O)N1CCN(C(=O)c2cc(C(C)C)on2)[C@H]2CS(=O)(=O)C[C@H]21 | 2.615%

Some entries from above, unchanged:

structure,percent effect
COCCN(C)C[C@@H]1CCC[C@@H]2CN(Cc3ccc(OC)nc3)C[C@@H]21,5.141
CC(C)C(=O)N1CCN(C(=O)c2cc(C(C)C)on2)[C@H]2CS(=O)(=O)C[C@H]21,2.615
CN(Cc1ccccc1)c1ncccc1CNC1CCC1,-3.528
c1ccc(-c2nc(CCNc3nnc(C4CCC4)o3)no2)cc1,3.971